Test results: patent US20240409482A1, “Novel Compound and Organic Light Emitting Device Comprising the Same” (LG Chem, Ltd., priority 2022, published 2024)

Assay: Characteristic evaluation of organic light emitting device (compound as host of the light emitting layer)
Details: for Driving voltage (V @ 10 mA/cm^2) / EQE (% @ 10 mA/cm^2): current density 10 mA/cm^2; for Lifetime (hr) (T90 @500 nit): time for luminance to be reduced to 90% of initial luminance (500 nit)
Protocol: A glass substrate thinly coated with ITO (indium tin oxide) to have a thickness of 500 Å was put into distilled water in which a detergent was dissolved, and ultrasonically washed. In this case, a product manufactured by Fischer Co., was used as the detergent, and distilled water twice filtered using a filter manufactured by Millipore Co., was used as the distilled water. After the ITO was washed for 30 minutes, ultrasonic washing was conducted twice repeatedly using distilled water for 10 minutes. After the washing using distilled water was completed, ultrasonic washing was conducted using isopropyl, and acetone solvents, and drying was conducted, and then the substrate was cleaned for 5 minutes, and then transferred to a glove box.
A coating composition, in which the following Compound O and the following Compound P (weight ratio of 2:8) were dissolved in 20 wt/v % cyclohexanone, was spin-coated (4000 rpm) on the ITO transparent electrode, and heat-treated (cured) at 200° C. for 30 minutes to form a hole injection layer with a thickness of 400 Å.
A coating composition, in which the following Compound Q (Mn: 27,900; Mw: 35,600; measured by gel permeation chromatography (GPC) on Agilent 1200 series, relative to PC standards) was dissolved in 6 wt/v % toluene, spin-coated (4000 rpm) on the hole injection layer, and heat-treated at 200° C. for 30 minutes to form a hole transport layer with a thickness of 200 Å.
A coating composition, in which Compound 1 prepared in the previous Preparation Example 1 as a host and Compound R as a dopant of the light emitting layer (a weight ratio of 98:2) were dissolved in 1.3 wt/v % cyclohexanone, spin-coated (4000 rpm) on the hole transport layer, and heat-treated at 180° C. for 30 minutes to form a light emitting layer with a thickness of 400 Å.
After being transferred to a vacuum depositor, the following Compound S was vacuum-deposited to a thickness of 350 Å on the light emitting layer to form an electron injection and transport layer. LiF and aluminum were sequentially deposited to have a thickness of 10 Å and 1000 Å, respectively, on the electron injection and transport layer, thereby forming a cathode.
In the above-mentioned process, the vapor deposition rate of the organic material was maintained at 0.4 to 0.7 Å/sec, the deposition rate of LiF was maintained at 0.3 Å/sec, the deposition rate of aluminum was maintained at 2 Å/sec, and the degree of vacuum during the deposition was maintained at 2*10^−7 to 5*10^−8 torr.
An organic light emitting device was manufactured in the same manner as in Example 1, except that the compounds shown in Table 2 below were used instead of Compound 1 as a host of the light emitting layer. The compounds used in Examples 1 to 14 are summarized as follows:
An organic light emitting device was manufactured in the same manner as in Example 1, except that the compounds shown in Table 2 below were used instead of Compound 1 as a host of the light emitting layer.
When a current is applied to the organic light emitting devices manufactured in Examples and Comparative Examples, the driving voltage, external quantum efficiency (EQE) and lifetime were measured at a current density of 10 mA/cm^2, and the results are shown in Table 3 below. At this time, the external quantum efficiency (FOE) was determined by “(number of photons emitted)/(number of charge carriers injected)*100” ˜, and T90 means the time required for the luminance to be reduced to 90% of the initial luminance (500 nit)

| Compound | Driving voltage (V @ 10 mA/cm^2) [V] | EQE (% @ 10 mA/cm^2) [%] | Lifetime (hr) (T90 @500 nit) [h] |
| --- | --- | --- | --- |
| c1ccc2cc(-c3c4ccccc4c(-c4ccc5ccc(-c6ccc7ccc(-c8c9ccccc9c(-c9ccc(-c%10cccc%11ccccc%10%11)cc9)c9ccccc89)cc7c6)cc5c4)c4ccccc34)ccc2c1 [Compound 10] | 6.3 | 5.4 | 615 |
| c1ccc2cc(-c3c4ccccc4c(-c4cccc5ccc(-c6ccc7cccc(-c8c9ccccc9c(-c9ccc(-c%10cccc%11ccccc%10%11)cc9)c9ccccc89)c7c6)cc45)c4ccccc34)ccc2c1 [Compound 3] | 6.6 | 5.48 | 662 |
| c1cc(-c2ccc(-c3c4ccccc4c(-c4cccc5ccccc45)c4ccccc34)cc2)c2cc(-c3ccc4cccc(-c5c6ccccc6c(-c6ccc7oc8ccccc8c7c6)c6ccccc56)c4c3)ccc2c1 [Compound 8] | 6.5 | 5.49 | 630 |
| c1cc(-c2cccc3ccc(-c4ccc5cccc(-c6c7ccccc7c(-c7ccc8ccccc8c7)c7ccccc67)c5c4)cc23)cc(-c2c3ccccc3c(-c3cccc4ccccc34)c3ccccc23)c1 [Compound 4] | 6.0 | 5.37 | 725 |
| c1ccc(-c2c3ccccc3c(-c3ccc(-c4ccc5cc(-c6ccc7cc(-c8c9ccccc9c(-c9ccccc9)c9ccccc89)ccc7c6)ccc5c4)cc3)c3ccccc23)cc1 [Compound A] | 6.8 | 4.05 | 321 |
| c1ccc2cc(-c3ccc(-c4c5ccccc5c(-c5cccc6ccc(-c7ccc8cccc(-c9c%10ccccc%10c(-c%10ccc%11ccccc%11c%10)c%10ccccc9%10)c8c7)cc56)c5ccccc45)cc3)ccc2c1 [Compound 2] | 6.4 | 5.57 | 685 |
| c1cc(-c2cccc3ccc(-c4ccc5cccc(-c6c7ccccc7c(-c7ccc8ccccc8c7)c7ccccc67)c5c4)cc23)cc(-c2c3ccccc3c(-c3ccc4ccccc4c3)c3ccccc23)c1 [Compound 5] | 6.2 | 5.32 | 679 |
| c1ccc2cc(-c3c4ccccc4c(-c4ccc(-c5cccc6ccc(-c7ccc8cccc(-c9c%10ccccc%10c(-c%10ccc%11ccccc%11c%10)c%10ccccc9%10)c8c7)cc56)cc4)c4ccccc34)ccc2c1 [Compound 1] | 6.4 | 5.53 | 621 |
| c1cc(-c2ccc(-c3c4ccccc4c(-c4cccc5ccccc45)c4ccccc34)cc2)c2cc(-c3ccc4cccc(-c5c6ccccc6c(-c6cccc7oc8ccccc8c67)c6ccccc56)c4c3)ccc2c1 [Compound 6] | 6.4 | 5.41 | 733 |
| c1cc(-c2ccc(-c3c4ccccc4c(-c4cccc5ccccc45)c4ccccc34)cc2)c2ccc(-c3ccc4c(-c5c6ccccc6c(-c6ccc7oc8ccccc8c7c6)c6ccccc56)cccc4c3)cc2c1 [Compound 12] | 6.2 | 5.45 | 659 |
| c1ccc2cc(-c3c4ccccc4c(-c4ccc(-c5cccc6cc(-c7ccc8c(-c9c%10ccccc%10c(-c%10ccc%11ccccc%11c%10)c%10ccccc9%10)cccc8c7)ccc56)cc4)c4ccccc34)ccc2c1 [Compound 11] | 6.5 | 5.46 | 654 |
| c1ccc2c(-c3c4ccccc4c(-c4ccc(-c5ccc6ccc(-c7ccc8ccc(-c9c%10ccccc%10c(-c%10ccc%11oc%12ccccc%12c%11c%10)c%10ccccc9%10)cc8c7)cc6c5)cc4)c4ccccc34)cccc2c1 [Compound 9] | 6.4 | 5.43 | 680 |
| c1cc(-c2cccc3ccc(-c4ccc5cccc(-c6c7ccccc7c(-c7ccc8oc9ccccc9c8c7)c7ccccc67)c5c4)cc23)cc(-c2c3ccccc3c(-c3ccc4ccccc4c3)c3ccccc23)c1 [Compound 7] | 6.1 | 5.56 | 649 |
| c1ccc2c(-c3ccc(-c4c5ccccc5c(-c5ccc(-c6cccc7c(-c8cccc9ccc(-c%10ccc(-c%11c%12ccccc%12c(-c%12cccc%13ccccc%12%13)c%12ccccc%11%12)cc%10)cc89)cccc67)cc5)c5ccccc45)cc3)cccc2c1 [Compound B, reference compound] | 6.9 | 4.17 | 419 |
